Test results published in publication PMC6775688.

Chains of the proteins cited; added tags and fusions are not shown. Residues count along the entry.
UniProt P25311, residues 21-298: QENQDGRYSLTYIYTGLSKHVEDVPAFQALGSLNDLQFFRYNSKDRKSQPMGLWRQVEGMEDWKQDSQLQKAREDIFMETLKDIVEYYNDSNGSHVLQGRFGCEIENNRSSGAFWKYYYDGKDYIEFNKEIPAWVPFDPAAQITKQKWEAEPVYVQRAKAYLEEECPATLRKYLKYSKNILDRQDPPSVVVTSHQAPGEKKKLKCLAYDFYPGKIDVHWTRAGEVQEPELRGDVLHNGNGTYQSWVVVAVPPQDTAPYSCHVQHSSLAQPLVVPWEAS
UniProt P21333: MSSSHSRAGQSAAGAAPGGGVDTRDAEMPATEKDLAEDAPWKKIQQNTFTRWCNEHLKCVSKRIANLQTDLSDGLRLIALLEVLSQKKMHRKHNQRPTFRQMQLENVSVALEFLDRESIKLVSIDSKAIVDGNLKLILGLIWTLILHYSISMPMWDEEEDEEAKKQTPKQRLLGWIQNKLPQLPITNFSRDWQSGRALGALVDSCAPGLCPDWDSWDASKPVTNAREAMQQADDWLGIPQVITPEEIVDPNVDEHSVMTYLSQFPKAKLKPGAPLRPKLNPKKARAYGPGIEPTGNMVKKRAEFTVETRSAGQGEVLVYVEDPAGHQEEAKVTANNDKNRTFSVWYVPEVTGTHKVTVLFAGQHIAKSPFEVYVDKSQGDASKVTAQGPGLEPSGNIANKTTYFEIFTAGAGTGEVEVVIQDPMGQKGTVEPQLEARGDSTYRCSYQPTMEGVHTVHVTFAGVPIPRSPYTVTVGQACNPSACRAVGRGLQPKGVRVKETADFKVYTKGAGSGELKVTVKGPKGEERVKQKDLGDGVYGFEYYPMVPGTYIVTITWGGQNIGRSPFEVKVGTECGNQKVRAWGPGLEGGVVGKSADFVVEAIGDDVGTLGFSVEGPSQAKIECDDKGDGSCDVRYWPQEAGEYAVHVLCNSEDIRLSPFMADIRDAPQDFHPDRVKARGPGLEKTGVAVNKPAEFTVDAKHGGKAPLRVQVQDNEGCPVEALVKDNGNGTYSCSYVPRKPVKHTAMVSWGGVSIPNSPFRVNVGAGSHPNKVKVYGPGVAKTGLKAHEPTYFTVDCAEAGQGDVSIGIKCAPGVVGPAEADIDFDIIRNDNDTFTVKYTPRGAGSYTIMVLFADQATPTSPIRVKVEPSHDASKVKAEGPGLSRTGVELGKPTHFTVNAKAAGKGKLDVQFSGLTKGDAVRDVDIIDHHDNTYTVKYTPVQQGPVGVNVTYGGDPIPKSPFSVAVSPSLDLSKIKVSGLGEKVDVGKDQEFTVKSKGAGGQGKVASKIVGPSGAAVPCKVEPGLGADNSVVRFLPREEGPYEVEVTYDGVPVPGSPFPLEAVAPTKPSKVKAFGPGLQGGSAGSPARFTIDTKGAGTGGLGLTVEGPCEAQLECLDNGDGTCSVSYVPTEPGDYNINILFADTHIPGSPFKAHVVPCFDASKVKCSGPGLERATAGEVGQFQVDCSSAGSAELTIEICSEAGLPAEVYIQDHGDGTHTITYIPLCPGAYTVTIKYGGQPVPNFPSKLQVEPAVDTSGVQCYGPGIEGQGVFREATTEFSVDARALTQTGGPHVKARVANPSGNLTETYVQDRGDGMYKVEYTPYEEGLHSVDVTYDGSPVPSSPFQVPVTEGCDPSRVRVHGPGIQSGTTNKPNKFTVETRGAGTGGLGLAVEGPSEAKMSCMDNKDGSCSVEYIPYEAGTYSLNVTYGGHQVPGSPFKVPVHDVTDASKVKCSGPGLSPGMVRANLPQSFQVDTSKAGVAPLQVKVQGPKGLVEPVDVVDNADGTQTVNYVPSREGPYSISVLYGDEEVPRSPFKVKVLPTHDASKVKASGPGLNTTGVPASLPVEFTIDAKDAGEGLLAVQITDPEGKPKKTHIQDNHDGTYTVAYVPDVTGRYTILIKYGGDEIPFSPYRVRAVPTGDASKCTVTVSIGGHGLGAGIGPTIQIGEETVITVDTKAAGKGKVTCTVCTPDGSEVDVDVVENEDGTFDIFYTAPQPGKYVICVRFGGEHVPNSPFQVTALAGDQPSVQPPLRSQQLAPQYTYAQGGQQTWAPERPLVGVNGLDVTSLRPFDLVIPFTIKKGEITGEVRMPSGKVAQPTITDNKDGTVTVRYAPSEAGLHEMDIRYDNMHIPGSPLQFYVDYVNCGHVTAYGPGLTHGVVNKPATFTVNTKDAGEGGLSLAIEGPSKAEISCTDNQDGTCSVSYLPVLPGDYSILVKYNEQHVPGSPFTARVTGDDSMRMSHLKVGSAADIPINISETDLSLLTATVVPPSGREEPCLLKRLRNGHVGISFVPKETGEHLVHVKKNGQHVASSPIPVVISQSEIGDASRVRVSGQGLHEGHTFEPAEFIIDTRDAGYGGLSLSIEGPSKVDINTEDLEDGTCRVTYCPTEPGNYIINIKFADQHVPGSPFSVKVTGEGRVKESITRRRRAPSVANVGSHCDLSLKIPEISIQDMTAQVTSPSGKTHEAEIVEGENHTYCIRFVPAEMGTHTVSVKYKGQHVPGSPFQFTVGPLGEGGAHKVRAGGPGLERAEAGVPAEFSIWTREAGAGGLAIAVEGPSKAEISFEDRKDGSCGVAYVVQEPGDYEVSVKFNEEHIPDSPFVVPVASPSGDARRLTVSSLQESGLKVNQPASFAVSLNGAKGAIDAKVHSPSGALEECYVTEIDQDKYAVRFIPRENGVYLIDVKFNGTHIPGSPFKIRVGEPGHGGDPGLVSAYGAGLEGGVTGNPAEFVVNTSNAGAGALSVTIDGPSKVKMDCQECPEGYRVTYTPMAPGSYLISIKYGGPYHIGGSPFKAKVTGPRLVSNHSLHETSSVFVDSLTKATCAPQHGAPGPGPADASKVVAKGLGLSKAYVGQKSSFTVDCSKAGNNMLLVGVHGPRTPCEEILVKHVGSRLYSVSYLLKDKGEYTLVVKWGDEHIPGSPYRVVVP

Target: Zinc-α2-glycoprotein 1 (AZGP1) (human (endogenous in HCT116 and SW480)) (UniProt P25311)
Assay: affinity purification with mass spectrometry; AZGP1 interactors purified by immunoaffinity purification, gel silver stained, resolved by LC-MS/MS; cells not given

In the case of “filamin A (FLNA) (from UniProt P21333 1-2647)”, the binding is reported as “binds”.

These are yes or no findings as the source states them, for the method shown. In cells and extracts the contact can be indirect. A yes stands for co-enrichment or nearness to the bait. Other partners may have been found.
